Data from paper PMC3114773.
No constants are given. Whether binding was seen depends on the method and setting. Binding seen in cells or lysates may run through a third protein. A result given as binding can be weak or reduced; the word gives no strength.

Amino acid sequences for entries named in this document (tags omitted). A change or cut given only in a name is not applied to a line headed by its entry.
UniProt P56726: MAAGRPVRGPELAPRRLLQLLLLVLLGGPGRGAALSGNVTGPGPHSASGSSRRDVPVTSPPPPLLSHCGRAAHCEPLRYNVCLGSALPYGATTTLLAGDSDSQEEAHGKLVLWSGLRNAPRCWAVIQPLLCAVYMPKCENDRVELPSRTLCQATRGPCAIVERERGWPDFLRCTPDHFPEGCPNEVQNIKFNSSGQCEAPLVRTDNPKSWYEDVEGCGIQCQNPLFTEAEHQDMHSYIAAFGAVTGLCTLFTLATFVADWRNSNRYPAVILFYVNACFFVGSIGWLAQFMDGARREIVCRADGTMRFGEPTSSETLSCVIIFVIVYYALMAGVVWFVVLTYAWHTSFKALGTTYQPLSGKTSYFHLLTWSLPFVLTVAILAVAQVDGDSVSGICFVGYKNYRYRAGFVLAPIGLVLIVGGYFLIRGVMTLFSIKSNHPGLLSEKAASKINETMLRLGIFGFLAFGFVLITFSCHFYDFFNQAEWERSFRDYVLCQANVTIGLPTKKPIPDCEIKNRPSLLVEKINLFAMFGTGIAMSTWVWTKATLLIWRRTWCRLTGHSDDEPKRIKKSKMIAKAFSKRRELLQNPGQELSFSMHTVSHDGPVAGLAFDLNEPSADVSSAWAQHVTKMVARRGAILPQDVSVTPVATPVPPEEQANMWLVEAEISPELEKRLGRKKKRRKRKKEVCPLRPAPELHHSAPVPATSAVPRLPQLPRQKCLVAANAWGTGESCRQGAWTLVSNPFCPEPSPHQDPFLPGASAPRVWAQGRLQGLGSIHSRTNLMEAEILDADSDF
UniProt Q8BK63: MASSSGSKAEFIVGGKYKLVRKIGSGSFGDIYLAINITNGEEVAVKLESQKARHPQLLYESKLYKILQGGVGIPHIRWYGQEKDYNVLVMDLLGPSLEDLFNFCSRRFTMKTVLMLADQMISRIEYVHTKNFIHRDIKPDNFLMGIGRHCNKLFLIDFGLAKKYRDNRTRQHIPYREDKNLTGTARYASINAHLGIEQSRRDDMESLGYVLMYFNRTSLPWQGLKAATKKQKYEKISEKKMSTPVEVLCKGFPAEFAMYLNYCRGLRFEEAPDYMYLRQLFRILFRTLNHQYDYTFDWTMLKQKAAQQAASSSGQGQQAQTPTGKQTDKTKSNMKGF
UniProt Q99MK8: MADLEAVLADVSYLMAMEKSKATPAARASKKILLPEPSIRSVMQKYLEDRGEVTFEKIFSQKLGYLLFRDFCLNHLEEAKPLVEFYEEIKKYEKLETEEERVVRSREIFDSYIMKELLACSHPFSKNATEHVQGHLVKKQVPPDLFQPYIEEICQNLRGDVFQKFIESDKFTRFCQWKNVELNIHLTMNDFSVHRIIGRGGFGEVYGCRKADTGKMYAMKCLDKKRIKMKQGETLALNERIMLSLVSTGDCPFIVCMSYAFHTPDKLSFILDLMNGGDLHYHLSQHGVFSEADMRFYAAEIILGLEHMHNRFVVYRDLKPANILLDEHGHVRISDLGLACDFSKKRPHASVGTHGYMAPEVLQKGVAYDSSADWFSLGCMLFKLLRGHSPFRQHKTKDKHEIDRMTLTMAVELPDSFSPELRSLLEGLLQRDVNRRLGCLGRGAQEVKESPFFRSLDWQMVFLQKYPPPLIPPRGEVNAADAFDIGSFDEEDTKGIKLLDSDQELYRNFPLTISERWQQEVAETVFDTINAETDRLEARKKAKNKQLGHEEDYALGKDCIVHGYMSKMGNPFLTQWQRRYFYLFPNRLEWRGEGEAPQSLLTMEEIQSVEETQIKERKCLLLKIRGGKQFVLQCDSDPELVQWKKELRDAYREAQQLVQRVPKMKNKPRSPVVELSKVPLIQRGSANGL

Columns and labels:
Experiment in all cases: co-IP; NIH 3T3 cells transfected with Myc- or HA-tagged Smo constructs, with or without Shh-conditioned medium; lysis in RIPA buffer (50 mM Tris-Cl pH 7.9, 150 mM NaCl, 5 mM EDTA, 1% NP-40); Smo pulled down, endogenous CK1α and GRK2 blotted
[1] = target: SmoM1 (full-length Smo with the M1 mutation) (not stated (mammalian)) (UniProt P56726)
[2] = target: SmoΔ588 with the A1 mutation (not stated (mammalian)) (UniProt P56726)
[3] = target: SmoΔ588 with the M1 mutation (not stated (mammalian)) (UniProt P56726)

| binding [1] | binding [2] | binding [3] | Substance |
| --- | --- | --- | --- |
| binds | binds | binds | endogenous CK1α (from UniProt Q8BK63 1-337) (enzyme) |
| binds |  |  | endogenous GRK2 (from UniProt Q99MK8 1-689) (enzyme) |
